{"source": "PubChem BioAssay AID1259308 (NCATS, 2017)", "test": "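Genes whose loss raises luciferase production in HEK293 cells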 (primary screen)", "system": "human HEK293 embryonic kidney cells stably expressing firefly luciferase (HEK-CMV-Luc2-Hygro)", "reagent": "single siRNA against human genes, 0.8 pmol siRNA per well", "time to read-out": "72 h", "read-out": "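Luciferase light (ONE-Glo) measured on one replicate plate set and viability (CellTiter-Glo) on the other, scaled to a negative control siRNA, with robust z-scores and luciferase per cell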", "direction": "total luciferase, z-score: higher = more reporter protein produced", "rule for the call": "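An siRNA counts as active if its total luciferase robust z-score exceeds 3; genes with two or more such siRNAs out of three were retested with fresh siRNAs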", "meaning of the calls": "active = raised luciferase; inactive = no rise", "note": "This is one part, drawn at random, of about 59,000 reagents. Over the whole deposit, about 1,510 (2.6%) are marked active. 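Calls use total luciferase alone and ignore viability, so some active siRNAs may act by altering cell number.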 A number with no mark means an inactive call. The numbers tell different reagents against one gene apart. Not all columns of the deposit are shown."}
{"Target gene":"OXCT1","reagent":1,"total luciferase, z-score":-1.31}
{"Target gene":"OXCT1","reagent":2,"total luciferase, z-score":-0.742}
{"Target gene":"OXCT1","reagent":3,"total luciferase, z-score":-0.479}
{"Target gene":"ADPGK","reagent":1,"total luciferase, z-score":-1.54}
{"Target gene":"ADPGK","reagent":2,"total luciferase, z-score":-0.0685}
{"Target gene":"ADPGK","reagent":3,"total luciferase, z-score":0.977}
{"Target gene":"CRMP1","reagent":1,"total luciferase, z-score":0.464}
{"Target gene":"CRMP1","reagent":2,"total luciferase, z-score":-0.313}
{"Target gene":"CRMP1","reagent":3,"total luciferase, z-score":0.594}
{"Target gene":"ST3GAL2","reagent":1,"total luciferase, z-score":-1.79}
{"Target gene":"ST3GAL2","reagent":2,"total luciferase, z-score":-0.966}
{"Target gene":"ST3GAL2","reagent":3,"total luciferase, z-score":0.244}
{"Target gene":"NDUFS7","reagent":1,"total luciferase, z-score":-0.713}
{"Target gene":"NDUFS7","reagent":2,"total luciferase, z-score":-0.272}
{"Target gene":"NDUFS7","reagent":3,"total luciferase, z-score":0.681}
{"Target gene":"PSMD11","reagent":1,"total luciferase, z-score":0.857}
{"Target gene":"PSMD11","reagent":2,"total luciferase, z-score":-0.908}
{"Target gene":"PSMD11","reagent":3,"total luciferase, z-score":0.665}

4 neighbouring reagents from above:
{"Target gene":"CRMP1","reagent":2,"total luciferase, z-score":-0.313}
{"Target gene":"CRMP1","reagent":3,"total luciferase, z-score":0.594}
{"Target gene":"ST3GAL2","reagent":1,"total luciferase, z-score":-1.79}
{"Target gene":"ST3GAL2","reagent":2,"total luciferase, z-score":-0.966}

Additional results follow.
{"Target gene":"SLC7A2","reagent":1,"total luciferase, z-score":-0.362}
{"Target gene":"SLC7A2","reagent":2,"total luciferase, z-score":0.94}
{"Target gene":"SLC7A2","reagent":3,"total luciferase, z-score":-0.301}
{"Target gene":"MTARC1","reagent":1,"total luciferase, z-score":2.29}
{"Target gene":"MTARC1","reagent":2,"total luciferase, z-score":0.849}
{"Target gene":"MTARC1","reagent":3,"total luciferase, z-score":-0.304}
{"Target gene":"PLEKHD1","reagent":1,"total luciferase, z-score":-0.814}
{"Target gene":"PLEKHD1","reagent":2,"total luciferase, z-score":2.38}
{"Target gene":"PLEKHD1","reagent":3,"total luciferase, z-score":1.95}
{"Target gene":"SMPD3","reagent":1,"total luciferase, z-score":0.218}
{"Target gene":"SMPD3","reagent":2,"total luciferase, z-score":-1.15}
{"Target gene":"SMPD3","reagent":3,"total luciferase, z-score":0.127}
{"Target gene":"POLR2B","reagent":1,"total luciferase, z-score":-3.43}
{"Target gene":"POLR2B","reagent":2,"total luciferase, z-score":-1.31}
{"Target gene":"POLR2B","reagent":3,"total luciferase, z-score":-3.2}
